The record followed here is PubChem BioAssay AID292 (DTP/NCI, 2004).

The structures appear in SMILES notation. The list shows only some results of the screen, not a fair sample: it gathers tests that were run many times, whatever their T/C, doses with no T/C, and many T/C values between a quarter and a half above the control. Further doses and runs are listed elsewhere. T/C is the treated group as % of the vehicle group. Some doses have a count of surviving animals in place of a T/C: the source files T/C as zero there, which appears to mark a toxic dose or a test without result, not a measured value. Some survivor counts are full or nearly so, which does not show that the dose was tolerated: the source hardly ever lists a survival T/C far under the control, and the zero likely stands for such cases as well. Survivors were counted at the toxicity check, usually on the fifth day, unless a day is given; later deaths do not show. Schedule codes are those of the source, read here as Q, the interval in days (D) or hours (H), X, the number of doses. Counts like (3×) stand for listed records that agree. Some entries hold several experiments; the values are given in rising order. For survival time, this PubChem deposit counts one and a half times the control or more as active, and values a quarter to a half above the control carry no call in these data; other NCI protocols may use other cut-offs. Some T/C values carry the count of animals alive at the toxicity check (mostly the fifth day); without a count, all were alive then.

The test system of the assay is B6C3F1 mice, ip Sarcoma M5076, median survival T/C. The assay can be described thus: NCI In Vivo Anticancer Drug Screen. Data for tumor model Sarcoma M5076 (intraperitoneal) in B6C3F1 mice. The settings on record: T/C endpoint: median survival time, higher T/C = longer survival. The gist of the method:
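Survival measured in treated (T) and vehicle control (C) mice with transplantable tumour; result given as T divided by C.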

Setting [1] is: dose: 400.0 mg/kg/injection, schedule: Q04DX004 (ip), vehicle: water.
[2] abbreviates: dose: 400.0 mg/kg/injection, schedule: Q04DX004 (ip), vehicle: saline with Tween-80.
Setting [3] is: dose: 800.0 mg/kg/injection, schedule: Q04DX004 (ip), vehicle: saline with Tween-80.

On to `O=C1c2ccccc2C(=O)c2c(NCCNCCO)ccc(NCCNCCO)c21`, for which the T/C (dose: 4.0 mg/kg/injection, schedule: Q04DX004 (ip), vehicle: saline) was 126 % of control; the T/C (dose: 10.0 mg/kg/injection, schedule: Q04DX004 (ip), vehicle: saline) was 137 % of control; the T/C (dose: 10.0 mg/kg/injection, schedule: Q04DX004 (ip), vehicle: suspension in saline) is 149 % of control; the T/C (dose: 20.0 mg/kg/injection, schedule: Q04DX004 (ip), vehicle: saline, evaluated on day 60) is 153 and 171 % of control; the T/C (dose: 20.0 mg/kg/injection, schedule: Q04DX004 (ip), vehicle: saline, evaluated on day 75) is 136, 155 (2×), 156, 159 [9 of 10 alive on day 9], 170, 187 % of control; the T/C (dose: 20.0 mg/kg/injection, schedule: Q04DX005 (ip), vehicle: saline, evaluated on day 75) was 150, 159, 164, 185 % of control. In addition, the T/C runs as follows: (dose: 20.0 mg/kg/injection, schedule: Q04DX005 (ip), vehicle: saline, evaluated on day 100) 319 % of control; (dose: 40.0 mg/kg/injection, schedule: Q04DX004 (ip), vehicle: saline, evaluated on day 60) 183 and 200 % of control; (dose: 40.0 mg/kg/injection, schedule: Q04DX004 (ip), vehicle: saline, evaluated on day 75) 150, 169, 181, 182 [9 of 10 alive on day 14], 185, 188, 216 % of control; (dose: 40.0 mg/kg/injection, schedule: Q04DX005 (ip), vehicle: saline, evaluated on day 75) 160, 166, 170, 219 % of control; (dose: 40.0 mg/kg/injection, schedule: Q04DX005 (ip), vehicle: saline, evaluated on day 100) 319 % of control; (dose: 80.0 mg/kg/injection, schedule: Q04DX004 (ip), vehicle: saline, evaluated on day 60) 234 % of control [9 of 10 alive on day 14]. Further, the T/C (dose: 80.0 mg/kg/injection, schedule: Q04DX004 (ip), vehicle: saline, evaluated on day 75) is 178, 192, 207 [9 of 10 alive on day 9], 209, 219, 241, 274 % of control; the T/C (dose: 80.0 mg/kg/injection, schedule: Q04DX005 (ip), vehicle: saline, evaluated on day 75) was 186 [9 of 10 alive], 215, 278 % of control; the T/C (dose: 80.0 mg/kg/injection, schedule: Q04DX005 (ip), vehicle: saline, evaluated on day 100) is 319 % of control. In addition, the survivor count (dose: 80.0 mg/kg/injection, schedule: Q04DX004 (ip), vehicle: saline) was 6 of 10 on day 14; the survivor count (dose: 80.0 mg/kg/injection, schedule: Q04DX004 (ip), vehicle: suspension in saline) was 5 of 10 on day 14; the survivor count (dose: 80.0 mg/kg/injection, schedule: Q04DX005 (ip), vehicle: saline) is listed as 6 of 9 on day 9; the survivor count (dose: 160.0 mg/kg/injection, schedule: Q04DX004 (ip), vehicle: saline) is 0 of 10 on day 14, 1 of 10 on day 14, 2 of 10 on day 14, 3 of 10 on day 9, 5 of 10 on day 9, 9 of 10 on day 9, 10 of 10; the survivor count (dose: 160.0 mg/kg/injection, schedule: Q04DX005 (ip), vehicle: saline) is reported as 4 of 10 on day 9, 5 of 10 on day 9, 6 of 10 on day 9, 8 of 10.
Consider `CCN(CC)CCN1C(=O)C2C3C=CC(C2C1=O)C1C2C(=O)N(CCN(CC)CC)C(=O)C2C31` (stereo not given), for which the survivor count under setting [1] is 0 of 10 on day 14.
Turning to `O=C1N(Cl)C(=O)C(c2ccc(Cl)cc2)(c2ccc(Cl)cc2)N1Cl`, the survivor count by setting is: (dose: 200.0 mg/kg/injection, schedule: Q04DX004 (ip), vehicle: saline with Tween-80) 10 of 10 on day 14; under setting [2], 10 of 10 on day 14.
Take `Cc1ccc(C2=CSC3=NCCN23)cc1Cl`: the T/C runs as follows: (dose: 1.5 mg/kg/injection, schedule: Q04DX004 (ip), vehicle: saline) 126 % of control; (dose: 12.5 mg/kg/injection, schedule: Q04DX004 (ip), vehicle: saline) 144 % of control. Also, the survivor count is, setting by setting: (dose: 100.0 mg/kg/injection, schedule: Q04DX004 (ip), vehicle: saline) 0 of 10 on day 14; (dose: 200.0 mg/kg/injection, schedule: Q04DX004 (ip), vehicle: saline) 0 of 10 on day 14.
Turning to `COc1ccc(-c2cc(C(=O)Nc3cc(C(F)(F)F)cc(C(F)(F)F)c3)c3ccccc3n2)cc1`, the survivor count (dose: 800.0 mg/kg/injection, schedule: Q04DX004 (ip), vehicle: DMSO) is on record as 0 of 10 on day 14.
For `ClC1(Cl)Cc2ccccc21`, the survivor count under setting [3] is given as 0 of 10 on day 14.
As to `O=[N+]([O-])O.[Ga]`, where the note is “dose: 12.5 mg/kg/injection, schedule: Q04DX005 (ip), vehicle: saline”, the T/C was 127 % of control. For the same compound, the survivor count (dose: 200.0 mg/kg/injection, schedule: Q04DX005 (ip), vehicle: saline) is 4 of 8 on day 17.
Take `NC(=O)C1C=CN(Cc2ccccc2)C=C1`: the survivor count is 0 of 10 on day 14 under setting [2] and 0 of 10 on day 14 under setting [3].
On to `Cc1nnc2nc(N)[nH]n2c1=O`, for which the survivor count is reported as 1 of 10 on day 14 (dose: 200.0 mg/kg/injection, schedule: Q04DX004 (ip), vehicle: water) and 0 of 10 on day 14 under setting [1].
Regarding `Nc1ccccc1Sc1cc(Cl)nnc1Cl`, under setting [3], the survivor count is reported as 9 of 10 on day 14.
In the case of `O=C(O)c1cc(C(=O)O)c(C(=O)O)cc1C(=O)O.[NH2-].[NH2-].[NH2-].[NH2-].[Pt+2].[Pt+2]`, under “dose: 16.0 mg/kg/injection, schedule: Q04DX004 (ip), vehicle: water”, the T/C is 138 and 142 % of control. Also, the survivor count (dose: 64.0 mg/kg/injection, schedule: Q04DX004 (ip), vehicle: water) is 4 of 10 on day 14.
`O=C1c2cccc(NCCCNCCO)c2C(=O)c2cccc(NCCCNCCO)c21`: for the setting “dose: 100.0 mg/kg/injection, schedule: Q04DX004 (ip), vehicle: acid diluted with saline”, the survivor count is 7 of 10.
As for `Cc1ccc(Nc2nnc(CSc3ccc(Cl)cc3)s2)c(S(=O)(=O)O)c1`, the survivor count reads like this: (dose: 300.0 mg/kg/injection, schedule: Q04DX004 (ip), vehicle: saline with Tween-80) 4 of 10 on day 14; (dose: 600.0 mg/kg/injection, schedule: Q04DX004 (ip), vehicle: saline with Tween-80) 0 of 10 on day 14.
Turning to `CC[C@@H](C)[C@H]([C@H](CC(=O)N1CCC[C@@H]1[C@@H](OC)[C@H](C)C(=O)N[C@H](Cc1ccccc1)c1nccs1)OC)N(C)C(=O)[C@H](NC(=O)[C@@H](C(C)C)N(C)C)C(C)C`, the T/C runs as follows: (dose: 4.0 micrograms/kg/injection, schedule: Q04DX004 (ip), vehicle: saline + alcohol) 140 % of control; (dose: 13.0 micrograms/kg/injection, schedule: Q04DX004 (ip), vehicle: saline + alcohol) 142 % of control; (dose: 22.0 micrograms/kg/injection, schedule: Q04DX004 (ip), vehicle: saline + alcohol) 131 % of control.
Consider `Cc1cn(C2CC(F)C(CO)O2)c(=O)[nH]c1=O` (stereo not given), for which, under “dose: 1200.0 mg/kg/injection, schedule: Q04DX004 (ip), vehicle: suspension in saline”, the T/C is 126 % of control.
Take `CC/C(=C(\c1ccccc1)c1ccc(OCCN(C)C)cc1)c1ccccc1`: the survivor count was 10 of 10 on day 14 (2×) (dose: 100.0 mg/kg/injection, schedule: Q04DX004 (ip), vehicle: Klucel (hydroxypropylcellulose) (HPC)); 9 of 10 on day 14 and 10 of 10 on day 14 (dose: 200.0 mg/kg/injection, schedule: Q04DX004 (ip), vehicle: Klucel (hydroxypropylcellulose) (HPC)); 2 of 10 on day 14 (dose: 400.0 mg/kg/injection, schedule: Q04DX004 (ip), vehicle: Klucel (hydroxypropylcellulose) (HPC)); 0 of 10 on day 14 (dose: 800.0 mg/kg/injection, schedule: Q04DX004 (ip), vehicle: Klucel (hydroxypropylcellulose) (HPC)).
Consider `Nc1ncn(C2OC(CO)C(O)C2O)c(=O)n1` (stereo not given), for which the T/C (dose: 3.0 mg/kg/injection, schedule: Q01DX009 (ip), vehicle: saline) is 131 and 134 % of control; the T/C (dose: 12.5 mg/kg/injection, schedule: Q01DX009 (ip), vehicle: saline) was 137 and 138 % of control; the T/C (dose: 25.0 mg/kg/injection, schedule: Q01DX009 (ip), vehicle: saline) was 147 % of control. The survivor count is 0 of 10 on day 14 and 6 of 10 on day 14 (dose: 6.0 mg/kg/injection, schedule: Q01DX009 (ip), vehicle: saline); 0 of 10 on day 14 (dose: 100.0 mg/kg/injection, schedule: Q01DX009 (ip), vehicle: saline); 0 of 10 on day 14 and 6 of 10 on day 14 (dose: 200.0 mg/kg/injection, schedule: Q01DX009 (ip), vehicle: saline).
